No constants are given. Whether binding was seen depends on the method and setting. Binding seen in cells or lysates may run through a third protein. A yes stands for co-enrichment or nearness to the bait. Other partners may have been found.
Molecular target: FLAG-PRMT1, Q99873
Assay: affinity purification with mass spectrometry; Huh7 cells stably expressing FLAG-PRMT1 (FLAG vector as control) lysed and immunoprecipitated by FLAG beads; label-free quantitative proteomics, n = 2
Conditions: remark: other sources report otherwise

binding: binds
B1: FBXO7, endogenous, Q9Y3I1 1-522 (protein)
chain: MRLRVRLLKRTWPLEVPETEPTLGHLRSHLRQSLLCTWGYSSNTRFTITLNYKDPLTGDEETLASYGIVSGDLICLILQDDIPAPNIPSSTDSEHSSLQNNEQPSLATSSNQTSMQDEQPSDSFQGQAAQSGVWNDDSMLGPSQNFEAESIQDNAHMAEGTGFYPSEPMLCSESVEGQVPHSLETLYQSADCSDANDALIVLIHLLMLESGYIPQGTEAKALSMPEKWKLSGVYKLQYMHPLCEGSSATLTCVPLGNLIVVNATLKINNEIRSVKRLQLLPESFICKEKLGENVANIYKDLQKLSRLFKDQLVYPLLAFTRQALNLPDVFGLVVLPLELKLRIFRLLDVRSVLSLSAVCRDLFTASNDPLLWRFLYLRDFRDNTVRVQDTDWKELYRKRHIQRKESPKGRFVMLLPSSTHTIPFYPNPLHPRPFPSSRLPPGIIGGEYDQRPTLPYVGDPISSLIPGPGETPSQFPPLRPRFDPVGPLPGPNPILPGRGGPNDRFPFRPSRGRPTDGRLSFM

From article PMC11153525
